# Experimental data reported in the supplement of paper PMC8728848.
# The list shows a part of the results.
# B1: TAL6-4LysM (Trichoderma atroviride) (protein)
# chain: AADSIPSISPTGIITPTPTQSGMVSNCNKFYDVHSNDGCSAIASSQHVDLSSLYKWNPAIKTDCSGLQASVYVCIGILTTSMSTTSKLPTTTSKPSTTSKPPTGITTPTPTQSGMVKNCNKFYDVHSGDGCSAIASSQKVNLSSFYLWNPAVKTDCSGLQASVFVCIGTLTTSMSTTTSKLPTTTSKPSTTSKPPTGIITPTPTQNGMVKNCNKFYDVHSGDGCSAIASSQKVNLSSFYLWNPAVKTDCSGLQASVFVCVGTATTTTAAGITTPTPTQSGMVSGCNKFYDVHAGDGCSAIASSQKIALSSLYKWNPAVKTDCSGLQASVYICIGVGNAAAARVTGALEQKLISEEDLNSAVDHHHHHH
# Tests used:
# Assay in all cases: glycan array binding signal (z-score within array); higher = stronger binding
# Conditions in all cases: glycan notation: IUPAC condensed, linker removed
# [1] = biological target: Fuc(a1-2)Gal
# In short: (§1)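 Columns mapping to the same glycan were averaged after glycan names were converted to IUPAC-condensed notation. The data come from 3228 arrays in the Consortium for Functional Glycomics database, limited to those with an available protein sequence. Binding is reported as a within-array Z-score averaged across arrays of one protein sequence and across linkers.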
# [2] = biological target: Fuc(a1-2)Gal(b1-3)GalNAc
# In short: as §1
# [3] = biological target: Fuc(a1-2)Gal(b1-3)GalNAc(a1-3)[Fuc(a1-2)]Gal(b1-4)Glc
# In short: as §1
# [4] = biological target: Fuc(a1-2)Gal(b1-3)GalNAc(a1-3)[Fuc(a1-2)]Gal(b1-4)GlcNAc
# In short: as §1
# [5] = biological target: Fuc(a1-2)Gal(b1-3)GalNAc(b1-3)Gal
# In short: as §1
# [6] = biological target: Fuc(a1-2)Gal(b1-3)GalNAc(b1-3)Gal(a1-4)Gal(b1-4)Glc
# In short: as §1
# [7] = biological target: Fuc(a1-2)Gal(b1-3)GalNAc(b1-4)[Neu5Ac(a2-3)]Gal(b1-4)Glc
# In short: as §1
# [8] = biological target: Fuc(a1-2)Gal(b1-3)GlcNAc
# In short: as §1
# [9] = biological target: Fuc(a1-2)Gal(b1-3)GlcNAc(b1-2)Man(a1-3)[Fuc(a1-2)Gal(b1-3)GlcNAc(b1-2)Man(a1-6)]Man(b1-4)GlcNAc(b1-4)GlcNAc
# In short: as §1
# [10] = biological target: Fuc(a1-2)Gal(b1-3)GlcNAc(b1-2)Man(a1-3)[Fuc(a1-2)Gal(b1-3)GlcNAc(b1-2)Man(a1-6)]Man(b1-4)GlcNAc(b1-4)[Fuc(a1-6)]GlcNAc
# In short: as §1
# [11] = biological target: Fuc(a1-2)Gal(b1-3)GlcNAc(b1-3)Gal(b1-4)Glc
# In short: as §1
# [12] = biological target: Fuc(a1-2)Gal(b1-3)GlcNAc(b1-3)GalNAc
# In short: as §1
# [13] = biological target: Fuc(a1-2)Gal(b1-3)GlcNAc(b1-3)[Fuc(a1-2)Gal(b1-3)GlcNAc(b1-6)]GalNAc
# In short: as §1
# [14] = biological target: Fuc(a1-2)Gal(b1-3)GlcNAc(b1-3)[Gal(b1-4)GlcNAc(b1-6)]Gal(b1-4)Glc
# In short: as §1
# [15] = biological target: Fuc(a1-2)Gal(b1-3)GlcNAc(b1-3)[Neu5Ac(a2-6)Gal(b1-4)GlcNAc(b1-6)]Gal(b1-4)Glc
# In short: as §1
# [16] = biological target: Fuc(a1-2)Gal(b1-3)GlcNAc6S
# In short: as §1
# [17] = biological target: Fuc(a1-2)Gal(b1-3)[Fuc(a1-4)]GlcNAc
# In short: as §1
# [18] = biological target: Fuc(a1-2)Gal(b1-3)[Fuc(a1-4)]GlcNAc(b1-2)Man(a1-3)[Fuc(a1-2)Gal(b1-3)[Fuc(a1-4)]GlcNAc(b1-2)Man(a1-3)]Man(b1-4)GlcNAc(b1-4)GlcNAc
# In short: as §1
# [19] = biological target: Fuc(a1-2)Gal(b1-3)[Fuc(a1-4)]GlcNAc(b1-2)Man(a1-3)[Fuc(a1-2)Gal(b1-3)[Fuc(a1-4)]GlcNAc(b1-2)Man(a1-6)]Man(b1-4)GlcNAc(b1-4)[Fuc(a1-6)]GlcNAc(b1-4)[Fuc(a1-6)]GlcNAc
# In short: as §1
# [20] = biological target: Fuc(a1-2)Gal(b1-3)[Fuc(a1-4)]GlcNAc(b1-3)[Fuc(a1-3)[Gal(b1-4)]GlcNAc(b1-6)]Gal(b1-4)Glc
# In short: as §1
# [21] = biological target: Fuc(a1-2)Gal(b1-3)[Fuc(a1-4)]GlcNAc(b1-3)[Gal(b1-4)GlcNAc(b1-6)]Gal(b1-4)Glc
# In short: as §1
# [22] = biological target: Fuc(a1-2)Gal(b1-4)Glc
# In short: as §1
# [23] = biological target: Fuc(a1-2)Gal(b1-4)Glc6S
# In short: as §1
# [24] = biological target: Fuc(a1-2)Gal(b1-4)GlcNAc
# In short: as §1
# [25] = biological target: Fuc(a1-2)Gal(b1-4)GlcNAc(b1-2)Man
# In short: as §1
# [26] = biological target: Fuc(a1-2)Gal(b1-4)GlcNAc(b1-2)Man(a1-3)[Fuc(a1-2)Gal(b1-4)GlcNAc(b1-2)Man(a1-6)]Man(b1-4)GlcNAc(b1-4)GlcNAc
# In short: as §1
# [27] = biological target: Fuc(a1-2)Gal(b1-4)GlcNAc(b1-2)Man(a1-3)[Fuc(a1-2)Gal(b1-4)GlcNAc(b1-2)Man(a1-6)]Man(b1-4)GlcNAc(b1-4)[Fuc(a1-6)]GlcNAc
# In short: as §1
# [28] = biological target: Fuc(a1-2)Gal(b1-4)GlcNAc(b1-2)[Fuc(a1-2)Gal(b1-4)GlcNAc(b1-4)]Man(a1-3)[Fuc(a1-2)Gal(b1-4)GlcNAc(b1-2)Man(a1-6)]Man(b1-4)GlcNAc(b1-4)GlcNAc
# In short: as §1
# [29] = biological target: Fuc(a1-2)Gal(b1-4)GlcNAc(b1-3)Gal(b1-4)GlcNAc
# In short: as §1
# [30] = biological target: Fuc(a1-2)Gal(b1-4)GlcNAc(b1-3)Gal(b1-4)GlcNAc(b1-2)Man(a1-3)[Fuc(a1-2)Gal(b1-4)GlcNAc(b1-3)Gal(b1-4)GlcNAc(b1-2)Man(a1-6)]Man(b1-4)GlcNAc(b1-4)GlcNAc
# In short: as §1
# [31] = biological target: Fuc(a1-2)Gal(b1-4)GlcNAc(b1-3)Gal(b1-4)GlcNAc(b1-3)Gal(b1-4)GlcNAc
# In short: as §1
# [32] = biological target: Fuc(a1-2)Gal(b1-4)GlcNAc(b1-3)GalNAc
# In short: as §1
# [33] = biological target: Fuc(a1-2)Gal(b1-4)GlcNAc(b1-3)[Fuc(a1-2)Gal(b1-4)GlcNAc(b1-6)]GalNAc
# In short: as §1
# [34] = biological target: Fuc(a1-2)Gal(b1-4)GlcNAc(b1-3)[Fuc(a1-3)[Gal(b1-4)]GlcNAc(b1-6)]Gal(b1-4)Glc
# In short: as §1
# [35] = biological target: Fuc(a1-2)Gal(b1-4)GlcNAc(b1-6)GalNAc
# In short: as §1
# [36] = biological target: Fuc(a1-2)Gal(b1-4)GlcNAc6S
# In short: as §1
# [37] = biological target: Fuc(a1-2)Gal(b1-4)[Fuc(a1-3)]GlcNAc
# In short: as §1
# [38] = biological target: Fuc(a1-2)Gal(b1-4)[Fuc(a1-3)]GlcNAc(b1-2)Man(a1-3)[Fuc(a1-2)Gal(b1-4)[Fuc(a1-3)]GlcNAc(b1-2)Man(a1-6)]Man(b1-4)GlcNAc(b1-4)[Fuc(a1-6)]GlcNAc
# In short: as §1
# [39] = biological target: Fuc(a1-2)Gal(b1-4)[Fuc(a1-3)]GlcNAc(b1-2)[Fuc(a1-2)Gal(b1-4)[Fuc(a1-3)]GlcNAc(b1-4)]Man(a1-3)[Fuc(a1-2)Gal(b1-4)[Fuc(a1-3)]GlcNAc(b1-2)Man(a1-6)]Man(b1-4)GlcNAc(b1-4)GlcNAc
# In short: as §1
# [40] = biological target: Fuc(a1-2)Gal(b1-4)[Fuc(a1-3)]GlcNAc(b1-3)Gal(b1-4)[Fuc(a1-3)]GlcNAc
# In short: as §1
# [41] = biological target: Fuc(a1-2)Gal(b1-4)[Fuc(a1-3)]GlcNAc(b1-3)Gal(b1-4)[Fuc(a1-3)]GlcNAc(b1-3)Gal(b1-4)[Fuc(a1-3)]GlcNAc
# In short: as §1
# [42] = biological target: Fuc(a1-2)Gal(b1-4)[Fuc(a1-3)]GlcNAc(b1-3)GalNAc
# In short: as §1
# [43] = biological target: Fuc(a1-2)Gal(b1-4)[Fuc(a1-3)]GlcNAc(b1-3)[Neu5Ac(a2-6)Gal(b1-4)GlcNAc(b1-6)]Gal(b1-4)Glc
# In short: as §1
# [44] = biological target: Fuc(a1-2)Gal3S(b1-4)GlcNAc
# In short: as §1
# [45] = biological target: Fuc(a1-2)Gal6S(b1-3)GlcNAc
# In short: as §1
binder,measurement,setting,value
B1,glycan array binding signal (z-score),[1],0.293
same,glycan array binding signal (z-score),[2],-1.32
same,glycan array binding signal (z-score),[3],-0.861
same,glycan array binding signal (z-score),[4],-1.21
same,glycan array binding signal (z-score),[5],-0.335
same,glycan array binding signal (z-score),[6],-1.13
same,glycan array binding signal (z-score),[7],-0.07
same,glycan array binding signal (z-score),[8],-0.262
same,glycan array binding signal (z-score),[9],-0.556
same,glycan array binding signal (z-score),[10],-1.31
same,glycan array binding signal (z-score),[11],-0.135
same,glycan array binding signal (z-score),[12],0.317
same,glycan array binding signal (z-score),[13],0.821
same,glycan array binding signal (z-score),[14],-1.08
same,glycan array binding signal (z-score),[15],-0.069
same,glycan array binding signal (z-score),[16],1.83
same,glycan array binding signal (z-score),[17],-0.67
same,glycan array binding signal (z-score),[18],0.691
same,glycan array binding signal (z-score),[19],0.277
same,glycan array binding signal (z-score),[20],-1.17
same,glycan array binding signal (z-score),[21],0.295
same,glycan array binding signal (z-score),[22],0.401
same,glycan array binding signal (z-score),[23],-1.12
same,glycan array binding signal (z-score),[24],1.98
same,glycan array binding signal (z-score),[25],-0.525
same,glycan array binding signal (z-score),[26],-0.793
same,glycan array binding signal (z-score),[27],0.557
same,glycan array binding signal (z-score),[28],0.282
same,glycan array binding signal (z-score),[29],0.858
same,glycan array binding signal (z-score),[30],0.751
same,glycan array binding signal (z-score),[31],-0.327
same,glycan array binding signal (z-score),[32],-0.49
same,glycan array binding signal (z-score),[33],-0.02
same,glycan array binding signal (z-score),[34],0.207
same,glycan array binding signal (z-score),[35],-0.321
same,glycan array binding signal (z-score),[36],-0.315
same,glycan array binding signal (z-score),[37],-0.061
same,glycan array binding signal (z-score),[38],0.778
same,glycan array binding signal (z-score),[39],-1.12
same,glycan array binding signal (z-score),[40],-0.867
same,glycan array binding signal (z-score),[41],0.899
same,glycan array binding signal (z-score),[42],0.753
same,glycan array binding signal (z-score),[43],-0.571
same,glycan array binding signal (z-score),[44],-0.371
same,glycan array binding signal (z-score),[45],-0.214

# Exported tab-delimited: entries from further up.
binder	measurement	setting	value
B1	glycan array binding signal (z-score)	[12]	0.317
same	glycan array binding signal (z-score)	[14]	-1.08
same	glycan array binding signal (z-score)	[23]	-1.12
